This note sets out measurements from PMC6182170.

By UniProt entry, the sequences of proteins in these tests, tags left out.
UniProt Q22618: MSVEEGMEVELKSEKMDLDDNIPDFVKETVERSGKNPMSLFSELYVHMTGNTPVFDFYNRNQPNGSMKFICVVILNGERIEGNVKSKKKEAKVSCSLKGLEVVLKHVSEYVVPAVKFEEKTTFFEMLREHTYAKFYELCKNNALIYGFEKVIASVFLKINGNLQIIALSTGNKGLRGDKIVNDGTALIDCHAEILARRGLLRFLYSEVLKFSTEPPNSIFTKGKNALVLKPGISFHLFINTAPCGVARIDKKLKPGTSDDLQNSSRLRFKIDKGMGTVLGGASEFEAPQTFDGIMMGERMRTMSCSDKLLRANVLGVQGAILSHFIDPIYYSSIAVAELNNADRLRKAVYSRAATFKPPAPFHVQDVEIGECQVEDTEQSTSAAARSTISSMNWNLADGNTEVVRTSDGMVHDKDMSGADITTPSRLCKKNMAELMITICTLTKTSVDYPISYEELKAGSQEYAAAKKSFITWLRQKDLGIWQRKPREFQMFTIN

Substitutions are numbered along the chain they refer to. No constants are given. Whether binding was seen depends on the method and setting. Binding seen in cells or lysates may run through a third protein. Some results given as binding are weak or reduced against the parent protein; the word gives no strength. Tags and fused reporters may be left off the sequences shown.

Test [1] concerns the target T1, 3XFLAG-ADR-1 dsRBD1 mutant (K223E, K224A, K227A), expressed in worms (C. elegans) (UniProt Q9U3D6).
T1 sequence: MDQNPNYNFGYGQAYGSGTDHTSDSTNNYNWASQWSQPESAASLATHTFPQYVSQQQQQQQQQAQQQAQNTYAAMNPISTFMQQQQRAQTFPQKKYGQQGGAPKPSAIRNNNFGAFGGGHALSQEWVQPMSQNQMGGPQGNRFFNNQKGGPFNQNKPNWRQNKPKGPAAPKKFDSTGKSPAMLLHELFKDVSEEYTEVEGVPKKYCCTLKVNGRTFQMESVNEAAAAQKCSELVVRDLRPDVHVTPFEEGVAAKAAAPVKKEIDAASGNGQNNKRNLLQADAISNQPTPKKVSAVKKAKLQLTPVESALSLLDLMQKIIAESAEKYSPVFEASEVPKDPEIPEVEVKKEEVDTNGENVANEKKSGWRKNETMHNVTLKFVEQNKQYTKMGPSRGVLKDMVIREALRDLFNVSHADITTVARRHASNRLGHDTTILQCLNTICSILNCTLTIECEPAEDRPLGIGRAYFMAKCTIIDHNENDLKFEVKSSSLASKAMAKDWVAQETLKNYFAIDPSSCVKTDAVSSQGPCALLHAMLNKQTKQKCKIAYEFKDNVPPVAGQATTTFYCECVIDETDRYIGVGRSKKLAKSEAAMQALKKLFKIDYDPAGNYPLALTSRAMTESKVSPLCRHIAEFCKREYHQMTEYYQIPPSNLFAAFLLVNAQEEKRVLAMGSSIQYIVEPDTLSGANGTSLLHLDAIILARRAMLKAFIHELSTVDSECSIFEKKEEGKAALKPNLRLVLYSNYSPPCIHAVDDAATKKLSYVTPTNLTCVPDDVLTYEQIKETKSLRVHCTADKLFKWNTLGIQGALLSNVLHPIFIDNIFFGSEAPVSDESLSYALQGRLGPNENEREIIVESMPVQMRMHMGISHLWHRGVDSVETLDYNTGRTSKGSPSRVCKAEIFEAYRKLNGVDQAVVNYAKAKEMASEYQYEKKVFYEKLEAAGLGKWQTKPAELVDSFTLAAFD
Kind of test: co-IP; in vivo co-IP: worm lysates (no UV crosslinking) incubated with anti-FLAG magnetic beads to precipitate 3XFLAG-ADR-1; washed with RIP wash buffer; immunoblot with FLAG and ADR-2 (PA6496) antibodies. In general terms: In western blotting, separated proteins are transferred to a membrane and probed.

For test [2], the target named is T2, 3XFLAG-ADR-1 (wild type), expressed from the genomic adr-1 transgene in worms (C. elegans) (UniProt Q9U3D6).
T2 sequence: T1 sequence with E223K, A224K, A227K
The test is described as above.

Consider “ADR-2, endogenous in worm lysate (from UniProt Q22618 1-495) (enzyme)”, for which the binding entry in test [1] and in test [2] was “binds” throughout.
